Measurements published in patent US20090181898A1, “ABUSE-RESISTANT A[…]” (SHIRE LLC, priority 2002, published 2009).

Assay: Reactivity in the d-amphetamine ELISA (Amphetamine Ultra, Neogen)

## [2H]Oc1ccc(CC(C)N)cc1 (stereo not drawn) [para-hydroxy-d-amphetamine, reference compound]
  Reactivity in the d-amphetamine ELISA: 0.6%

## L-lysine-d-amphetamine diHCl
  Reactivity in the d-amphetamine ELISA: < 1%
